In PMC6373471:
These are yes or no findings as the source states them, for the method shown. In cells and extracts the contact can be indirect. These calls come from enrichment with a bait or labelling near it, and not all partners need be listed.

The chains behind the UniProt entries cited, without tags or fusion partners.
UniProt Q9SQI2: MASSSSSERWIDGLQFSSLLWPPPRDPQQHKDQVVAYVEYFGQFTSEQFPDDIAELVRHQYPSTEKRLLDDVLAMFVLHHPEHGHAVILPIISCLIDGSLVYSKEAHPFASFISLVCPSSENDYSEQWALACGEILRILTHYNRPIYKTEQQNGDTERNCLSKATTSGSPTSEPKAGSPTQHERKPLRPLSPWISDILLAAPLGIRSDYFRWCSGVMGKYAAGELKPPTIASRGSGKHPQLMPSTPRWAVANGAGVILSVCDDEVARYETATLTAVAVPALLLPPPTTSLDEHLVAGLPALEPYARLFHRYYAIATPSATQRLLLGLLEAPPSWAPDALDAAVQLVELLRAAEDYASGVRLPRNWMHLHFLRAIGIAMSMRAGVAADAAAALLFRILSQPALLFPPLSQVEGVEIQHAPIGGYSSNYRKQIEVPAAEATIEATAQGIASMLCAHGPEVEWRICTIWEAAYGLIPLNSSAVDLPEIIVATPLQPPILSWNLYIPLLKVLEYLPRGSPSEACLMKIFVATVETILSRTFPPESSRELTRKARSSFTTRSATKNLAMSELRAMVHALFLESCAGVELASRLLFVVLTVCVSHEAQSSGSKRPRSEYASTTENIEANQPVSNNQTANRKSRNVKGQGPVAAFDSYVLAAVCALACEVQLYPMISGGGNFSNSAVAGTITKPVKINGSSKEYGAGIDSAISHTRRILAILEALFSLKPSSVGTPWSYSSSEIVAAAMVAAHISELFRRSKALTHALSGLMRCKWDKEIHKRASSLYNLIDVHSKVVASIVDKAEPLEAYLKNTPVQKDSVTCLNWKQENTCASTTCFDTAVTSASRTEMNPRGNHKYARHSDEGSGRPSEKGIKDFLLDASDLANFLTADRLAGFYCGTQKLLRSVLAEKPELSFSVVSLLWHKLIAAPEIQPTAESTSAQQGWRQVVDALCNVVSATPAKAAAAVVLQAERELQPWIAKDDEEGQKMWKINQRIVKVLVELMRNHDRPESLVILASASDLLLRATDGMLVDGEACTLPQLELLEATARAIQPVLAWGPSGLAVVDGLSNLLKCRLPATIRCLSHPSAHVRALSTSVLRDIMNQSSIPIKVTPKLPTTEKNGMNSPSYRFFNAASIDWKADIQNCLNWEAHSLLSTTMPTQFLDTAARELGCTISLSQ

B1: ALDH3F1 (protein, UniProt Q70E96 1-484)
chain: MEAMKETVEESLREMRETFASGRTRSLKWRKAQIGAIYEMVKDNEDKICNALFQDLGKHSTEAFRDELGVVLRTATVAINCLDKWAVPKHSKLPLLFYPAKGKVISEPYGTVLVLSSWNFPISLSLDPLIGAIAAGNTVLLKSSELSPNASAFLAKTIPAYLDTKAIKVIEGGPDVATILLQHQWDKIFFTGSPKIGRIIMAAAAQHLTPVTLELGGKCPTIVDHHTISKNIKSVVKRIAGGKWGSCNGQACISVDYVLIEKSFAPTLIDMLKPTIKSFFGENPKESGCLSRIANKHHVQRLSRLLSDPRVQASIVYGGSIDEDKLYVEPTILLDPPLDSEIMNEEIFGPILPIITVRDIQESIGIINTKPKPLAIYAFTNDENLKTRILSETSSGSVTFNDVMIQYMCDALPFGGVGESGIGRYHGKYSFDCFSHEKAIMEGSLGMDLEARYPPWNNFKLTFIRLAFREAYFKLILLMLGLKR
B2: MS2 (protein, UniProt Q9SRV5 1-765)
chain: MASHIVGYPRMGPKRELKFALESFWDGKSSADDLQKVSADLRSDIWKQMSAAGIKYIPSNTFSHYDQVLDTTAMLGAVPSRYGFTSGEIGLDVYFSMARGNASVPAMEMTKWFDTNYHYIVPELGPEVKFSYASHKAVNEYKEAKALGVETVPVLVGPVSYLLLSKLAKGVDKSFDLLSLLPKILPVYKEVIAELKAAGASWIQLDEPLFVMDLEGHKLQAFSGAYAELESTLSGLNVLVETYFADIPAEAYKTLTSLKGVTAFGFDLVRGTKTIDLIKSGFPQGKYLFAGVVDGRNIWANDLAASLITLQSLEGVVGKDKLVVSTSCSLLHTAVDLINETKLDAEIKSWLAFAAQKVVEVDALAKALAGQTNESFFTANADALSSRRSSPRVTNESVQKAAAALKGSDHRRTTEVSARLDAQQKKLNLPILPTTTIGSFPQTVELRRVRREYKAKKISEEDYVKAIKEEIKKVVDIQEDLDIDVLVHGEPERNDMVEYFGEQLSGFAFTANGWVQSYGSRCVKPPVIYGDVSRPKPMTVFWSSTAQSMTKRPMKGMLTGPVTILNWSFVRNDQPRHETCYQIALAIKDEVEDLEKGGIGVIQIDEAALREGLPLRKAEHSFYLDWAVHSFRITNCGVQDSTQIHTHMCYSNFNDIIHSIIDMDADVITIENSRSDEKLLSVFREGVKYGAGIGPGVYDIHSPRIPSTDEIADRINKMLAVLEQNILWVNPDCGLKTRKYTEVKPALKAMVDAAKLIRSQLGSAK
B3: TCP‐1/cpn60 chaperonin (AT3G03960) (protein, UniProt Q94K05 1-549)
chain: MVGMSMQPYGIQSMLKEGYRHLSGLDEAVIKNIEACKELSTITRTSLGPNGMNKMVINHLDKLFVTNDAATIVNELEIQHPAAKLLVLAAKAQQEEIGDGANLTISFAGELLQNAEELIRMGLHPSEIISGYTKAVSKAVEILEQLVETGSETMDVRNKDEVISRMRAAVASKQFGQEEIICSLVTDACIQVCPKNPTNFNVDNVRVSKLLGGGLHNSCIVRGMVLKSDAVGSIKRMEKAKVAVFAGGVDTTATETKGTVLIHSAEQLENYAKTEEAKVEELIKAVAESGAKVIVSGGSIGEMALHFCERYKIMVLKISSKFELRRFCRTAGAVAHLKLSRPSPEDLGYVDSISVEEIGGVTVTIARNEEGGNSISTVVLRGSTDSILDDLERAVDDGVNTYKAMCRDSRIVPGAAATEIELAQRLKEYANAEIGLDKYAITKYAESFEFVPKTLADNAGLNAMEIIAALYTGHGSGNTKLGIDLEEGACKDVSETKVWDLFATKLFALKYASDAACTVLRVDQIIMAKPAGGPRRDAAQAAGAGAEED
B4: RHM1 (protein, UniProt Q9SYM5 1-669)
chain: MASYTPKNILITGAAGFIASHVANRLIRSYPDYKIVVLDKLDYCSNLKNLNPSKHSPNFKFVKGDIASADLVNHLLITEGIDTIMHFAAQTHVDNSFGNSFEFTKNNIYGTHVLLEACKVTGQIRRFIHVSTDEVYGETDEDALVGNHEASQLLPTNPYSATKAGAEMLVMAYGRSYGLPVITTRGNNVYGPNQFPEKLIPKFILLAMRGQVLPIHGDGSNVRSYLYCEDVAEAFEVVLHKGEVGHVYNIGTKKERRVNDVAKDICKLFNMDPEANIKFVDNRPFNDQRYFLDDQKLKKLGWSERTTWEEGLKKTMDWYTQNPEWWGDVSGALLPHPRMLMMPGGRHFDGSEDNSLAATLSEKPSQTHMVVPSQRSNGTPQKPSLKFLIYGKTGWIGGLLGKICDKQGIAYEYGKGRLEDRSSLLQDIQSVKPTHVFNSAGVTGRPNVDWCESHKTETIRANVAGTLTLADVCREHGLLMMNFATGCIFEYDDKHPEGSGIGFKEEDTPNFTGSFYSKTKAMVEELLKEYDNVCTLRVRMPISSDLNNPRNFITKISRYNKVVNIPNSMTVLDELLPISIEMAKRNLKGIWNFTNPGVVSHNEILEMYRDYINPEFKWANFTLEEQAKVIVAPRSNNEMDASKLKKEFPELLSIKESLIKYAYGPNKKT
B5: Vacuolar ATP synthase subunit H (protein, UniProt Q9LX65 1-441)
chain: MDQAELSIEQVLKRDIPWETYMNTKLVSAKGLQLLRRYDKKPESARAQLLDEDGPAYVHLFVSILRDIFKEETVEYVLALIYEMLSANPTRARLFHDESLANEDTYEPFLRLLWKGNWFIQEKSCKILAWIISARPKAGNAVIGNGIDDVLKGLVEWLCAQLKQPSHPTRGVPIAISCLSSLLKEPVVRSSFVQADGVKLLVPLISPASTQQSIQLLYETCLCIWLLSYYEPAIEYLATSRTMQRLTEVVKHSTKEKVVRVVILTFRNLLPKGTFGAQMVDLGLPHIIHSLKTQAWSDEDLLDALNQLEEGLKDKIKKLSSFDKYKQEVLLGHLDWNPMHKETNFWRENVTCFEENDFQILRVLLTILDTSSDPRSLAVACFDISQFIQYHAAGRVIVADLKAKERVMKLINHENAEVTKNAILCIQRLLLGAKYASFLQA
B6: GRF6 (protein, UniProt P48349 1-248)
chain: MAATLGRDQYVYMAKLAEQAERYEEMVQFMEQLVTGATPAEELTVEERNLLSVAYKNVIGSLRAAWRIVSSIEQKEESRKNDEHVSLVKDYRSKVESELSSVCSGILKLLDSHLIPSAGASESKVFYLKMKGDYHRYMAEFKSGDERKTAAEDTMLAYKAAQDIAAADMAPTHPIRLGLALNFSVFYYEILNSSDKACNMAKQAFEEAIAELDTLGEESYKDSTLIMQLLRDNLTLWTSDMQEQMDEA
B7: HAP13 (protein, UniProt O22715 1-428)
chain: MAGAASALFLLDIKGRVLVWRDYRGDVSAAQAERFFTKLIEKEGDSQSNDPVAYDNGVTYMFVQHSNVYLMIASRQNCNAASLLFFLHRVVDVFKHYFEELEEESLRDNFVVVYELLDEMMDFGYPQYTEARILSEFIKTDAYRMEVTQRPPMAVTNAVSWRSEGIQYKKNEVFLDVIENVNILVNSNGQIVRSDVVGALKMRTYLTGMPECKLGLNDRVLLEAQGRATKGKAIDLEDIKFHQCVRLARFENDRTISFIPPDGAFDLMTYRLSTQVKPLIWVEAQIESHSRSRVEMLIKARSQFKERSTATNVEIELPVPTDASNPTVRTSLGSASYAPEKDALVWKIKSFPGNKEYMLRAEFHLPSITAEEATPERKAPIRVKFEIPYFTVSGIQVRYLKIIEKSGYQALPWVRYITMAGEYELRLV
B8: CYCLING DOF FACTOR 3 (CDF3) (protein, UniProt Q8LFV3 1-448)
chain: MMMETRDPAIKLFGMKIPFPSVFESAVTVEDDEEDDWSGGDDKSPEKVTPELSDKNNNNCNDNSFNNSKPETLDKEEATSTDQIESSDTPEDNQQTTPDGKTLKKPTKILPCPRCKSMETKFCYYNNYNINQPRHFCKACQRYWTAGGTMRNVPVGAGRRKNKSSSSHYRHITISEALEAARLDPGLQANTRVLSFGLEAQQQHVAAPMTPVMKLQEDQKVSNGARNRFHGLADQRLVARVENGDDCSSGSSVTTSNNHSVDESRAQSGSVVEAQMNNNNNNNMNGYACIPGVPWPYTWNPAMPPPGFYPPPGYPMPFYPYWTIPMLPPHQSSSPISQKCSNTNSPTLGKHPRDEGSSKKDNETERKQKAGCVLVPKTLRIDDPNEAAKSSIWTTLGIKNEAMCKAGGMFKGFDHKTKMYNNDKAENSPVLSANPAALSRSHNFHEQI
B9: ALFIN‐LIKE 7 (AL7) (protein, UniProt Q8LA16 1-252)
chain: MEGIQHPIPRTVEEVFSDFRGRRAGLIKALSTDVQKFYHQCDPEKENLCLYGLPNETWEVNLPVEEVPPELPEPALGINFARDGMQEKDWISLVAVHSDSWLISVAFYFGARFGFGKNERKRLFQMINDLPTIFEVVTGNAKQSKDQSANHNSSRSKSSGGKPRHSESHTKASKMSPPPRKEDESGDEDEDDEQGAVCGACGDNYGGDEFWICCDACEKWFHGKCVKITPAKAEHIKHYKCPSCTTSKKMKA
B10: CYCLING DOF FACTOR 6 (CDF6) (protein, UniProt Q9LQX4 1-366)
chain: MSQVRDTPVKLFGWTITPVSHDPYSSSSHVLPDSSSSSSSSSLSLRPHMMNNQSVTDNTSLKLSSNLNNESKETSENSDDQHSEITTITSEEEKTTELKKPDKILPCPRCNSADTKFCYYNNYNVNQPRHFCRKCQRYWTAGGSMRIVPVGSGRRKNKGWVSSDQYLHITSEDTDNYNSSSTKILSFESSDSLVTERPKHQSNEVKINAEPVSQEPNNFQGLLPPQASPVSPPWPYQYPPNPSFYHMPVYWGCAIPVWSTLDTSTCLGKRTRDETSHETVKESKNAFERTSLLLESQSIKNETSMATNNHVWYPVPMTREKTQEFSFFSNGAETKSSNNRFVPETYLNLQANPAAMARSMNFRESI
B11: TREHALOSE‐6‐PHOSPHATASE SYNTHASE 8 (TPS8) (protein, UniProt Q0WUI9 1-856)
chain: MVSRSCANFLDLSSWDLLDFPQTPRTLPRVMTVPGIITDVDGDTTSEVTSTSGGSRERKIIVANMLPLQSKRDAETGKWCFNWDEDSLQLQLRDGFSSETEFLYVGSLNVDIETNEQEEVSQKLLEEFNCVATFLSQELQEMFYLGFCKHQLWPLFHYMLPMFPDHGDRFDRRLWQAYVSANKIFSDRVMEVINPEDDYVWIQDYHLMVLPTFLRKRFNRIKLGFFLHSPFPSSEIYRTLPVRDEILRGLLNCDLIGFHTFDYARHFLSCCSRMLGLDYESKRGHIGLDYFGRTVYIKILPVGVHMGRLESVLSLDSTAAKTKEIQEQFKGKKLVLGIDDMDIFKGISLKLIAMEHLFETYWHLKGKVVLVQIVNPARSSGKDVEEAKRETYETARRINERYGTSDYKPIVLIDRLVPRSEKTAYYAAADCCLVNAVRDGMNLVPYKYIVCRQGTRSNKAVVDSSPRTSTLVVSEFIGCSPSLSGAIRVNPWDVDAVAEAVNSALKMSETEKQLRHEKHYHYISTHDVGYWAKSFMQDLERACRDHYSKRCWGIGFGLGFRVLSLSPSFRKLSVEHIVPVYRKTQRRAIFLDYDGTLVPESSIVQDPSNEVVSVLKALCEDPNNTVFIVSGRGRESLSNWLSPCENLGIAAEHGYFIRWKSKDEWETCYSPTDTEWRSMVEPVMRSYMEATDGTSIEFKESALVWHHQDADPDFGSCQAKEMLDHLESVLANEPVVVKRGQHIVEVKPQGVSKGLAAEKVIREMVERGEPPEMVMCIGDDRSDEDMFESILSTVTNPELLVQPEVFACTVGRKPSKAKYFLDDEADVLKLLRGLGDSSSSLKPSSSHTQVAFESIV
B12: CYSTATIN 1 (CYS1) (protein, UniProt Q945Q1 1-101)
chain: MADQQAGTIVGGVRDIDANANDLQVESLARFAVDEHNKNENLTLEYKRLLGAKTQVVAGTMHHLTVEVADGETNKVYEAKVLEKAWENLKQLESFNHLHDV

The binders below were run against GIGANTEA with C-terminal 3xFLAG-6xHis tag (GI‐3F6H) (Arabidopsis thaliana) (UniProt Q9SQI2) (assay: affinity purification with mass spectrometry; time series study: tandem affinity purification (FLAG and His tags) of GI-3F6H from rosettes grown in short days, six time points plus ZT31; on-bead digest, label-free quantitation; WT plants as control).
B1 was tested, and the binding was “binds”. With B2 the binding was “binds”. For B3, the binding was “binds”. With B4 the binding was “binds”. B5 was tested, and the binding was “binds”. With B6 the binding was “binds”. For B7, the binding was “binds”. With B8 the binding was “binds”. B9 was tested, and the binding was “binds”. For B10, the binding was “binds”. For B11, the binding was “binds”. B12 was tested, and the binding was “binds”.
